Measurements as given in PMC4051618.
Results are given in words; binding and its absence hold for the method and conditions named. Binding seen in cells or lysates may run through a third protein. Some results given as binding are weak or reduced against the parent protein; the word gives no strength.

Amino acid sequences for entries named in this document (tags omitted).
UniProt Q13200: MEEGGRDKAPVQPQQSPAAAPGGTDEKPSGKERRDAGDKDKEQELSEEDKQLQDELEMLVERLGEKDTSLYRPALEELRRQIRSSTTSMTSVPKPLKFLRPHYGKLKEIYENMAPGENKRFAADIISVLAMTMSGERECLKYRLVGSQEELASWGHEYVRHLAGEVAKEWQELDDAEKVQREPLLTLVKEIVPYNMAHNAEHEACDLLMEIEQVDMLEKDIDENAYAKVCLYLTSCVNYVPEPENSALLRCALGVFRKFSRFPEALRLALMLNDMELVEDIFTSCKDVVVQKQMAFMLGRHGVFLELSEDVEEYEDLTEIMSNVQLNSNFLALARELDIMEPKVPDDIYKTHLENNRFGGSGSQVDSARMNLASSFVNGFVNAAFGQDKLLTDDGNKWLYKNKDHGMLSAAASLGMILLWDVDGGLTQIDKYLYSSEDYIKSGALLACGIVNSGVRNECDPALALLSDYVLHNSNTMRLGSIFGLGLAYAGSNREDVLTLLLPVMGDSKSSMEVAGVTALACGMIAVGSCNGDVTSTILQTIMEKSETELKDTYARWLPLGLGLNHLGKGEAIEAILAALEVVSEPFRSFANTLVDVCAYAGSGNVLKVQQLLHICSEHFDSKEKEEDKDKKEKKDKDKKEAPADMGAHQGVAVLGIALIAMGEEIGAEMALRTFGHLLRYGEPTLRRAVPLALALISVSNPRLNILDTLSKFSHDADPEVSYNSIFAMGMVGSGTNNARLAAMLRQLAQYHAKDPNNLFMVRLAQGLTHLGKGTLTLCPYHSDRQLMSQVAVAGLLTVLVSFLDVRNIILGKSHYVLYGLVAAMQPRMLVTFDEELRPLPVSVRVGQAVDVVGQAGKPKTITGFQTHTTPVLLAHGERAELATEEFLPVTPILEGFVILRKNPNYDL
UniProt Q16186: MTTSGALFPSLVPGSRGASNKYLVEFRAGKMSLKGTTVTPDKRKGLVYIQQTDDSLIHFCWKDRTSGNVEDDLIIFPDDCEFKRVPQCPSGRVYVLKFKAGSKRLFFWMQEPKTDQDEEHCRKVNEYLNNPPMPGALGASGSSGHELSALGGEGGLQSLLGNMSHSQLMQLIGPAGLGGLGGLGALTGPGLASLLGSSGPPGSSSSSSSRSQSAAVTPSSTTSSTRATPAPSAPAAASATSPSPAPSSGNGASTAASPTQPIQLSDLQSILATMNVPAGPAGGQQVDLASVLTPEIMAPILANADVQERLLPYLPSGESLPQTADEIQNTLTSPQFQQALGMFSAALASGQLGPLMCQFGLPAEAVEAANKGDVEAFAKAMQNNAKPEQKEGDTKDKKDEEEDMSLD
UniProt P62191: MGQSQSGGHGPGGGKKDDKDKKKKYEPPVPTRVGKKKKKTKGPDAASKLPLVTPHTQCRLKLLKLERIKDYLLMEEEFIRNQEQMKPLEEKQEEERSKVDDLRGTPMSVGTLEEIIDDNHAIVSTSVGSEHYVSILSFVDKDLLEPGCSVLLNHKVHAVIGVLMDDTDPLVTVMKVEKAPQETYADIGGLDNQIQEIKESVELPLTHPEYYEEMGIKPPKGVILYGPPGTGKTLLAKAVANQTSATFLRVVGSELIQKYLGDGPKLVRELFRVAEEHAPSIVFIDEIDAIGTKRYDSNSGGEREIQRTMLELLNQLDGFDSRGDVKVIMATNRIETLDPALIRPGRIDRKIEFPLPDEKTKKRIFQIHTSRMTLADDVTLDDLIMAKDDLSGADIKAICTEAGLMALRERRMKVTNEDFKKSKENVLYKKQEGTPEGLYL

Columns and labels:
[1] = target: HA-tagged S5aΔUIM (residues 1 to 195 of S5a, lacks both UIMs) (human) (UniProt P55036); assay: co-IP; A375 cells infected with adenovirus, lysed under native conditions that keep the 26S proteasome intact (20 mM Tris pH 7.5, 0.1% NP-40, 5 mM MgCl2, 20% glycerol, 2 mM ATP, 1 mM DTT); anti-HA agarose beads, 1 h at 4 °C; western blot for proteasomal subunits
[2] = target: HA-tagged full-length S5a (human) (UniProt P55036); assay: as above

binding [1]	binding [2]	Substance
binds	binds	S2/PSMD2/Rpn1 (19S base) (from UniProt Q13200 1-908)
binds	binds	ADRM1/Rpn13 (19S base) (from UniProt Q16186 1-407)
binds	binds	S4/PSMC1/Rpt2 (19S base) (from UniProt P62191 1-440)
